This is an account of results in article PMC9452830.

By UniProt entry, the sequences of proteins in these tests, tags left out. Where a name states a change or a piece, a line headed by the entry shows the natural chain unless it says otherwise. Chains listed by the source or under a name are the forms on record and can include a tag or linker. Residues count along the entry.
UniProt Q13772: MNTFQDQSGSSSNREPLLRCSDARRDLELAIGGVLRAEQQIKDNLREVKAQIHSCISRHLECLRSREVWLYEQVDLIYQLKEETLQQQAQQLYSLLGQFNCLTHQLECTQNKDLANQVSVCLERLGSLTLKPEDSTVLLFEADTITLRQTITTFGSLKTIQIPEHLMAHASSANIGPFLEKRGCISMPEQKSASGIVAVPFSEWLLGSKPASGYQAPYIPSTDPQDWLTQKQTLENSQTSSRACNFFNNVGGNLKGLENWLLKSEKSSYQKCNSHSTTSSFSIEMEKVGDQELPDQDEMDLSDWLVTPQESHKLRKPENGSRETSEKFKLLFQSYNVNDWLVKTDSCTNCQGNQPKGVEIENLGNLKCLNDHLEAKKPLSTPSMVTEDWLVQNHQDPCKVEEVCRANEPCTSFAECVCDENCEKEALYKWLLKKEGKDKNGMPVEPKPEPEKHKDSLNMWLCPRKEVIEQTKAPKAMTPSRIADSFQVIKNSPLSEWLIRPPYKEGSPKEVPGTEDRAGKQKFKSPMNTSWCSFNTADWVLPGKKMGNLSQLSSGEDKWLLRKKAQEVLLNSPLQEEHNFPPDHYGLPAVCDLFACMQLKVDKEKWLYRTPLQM
N-terminal domain (residues 1–182) of NCOA4, wild type, two-hybrid fusion: residues 1-182 of Q13772
mGFP-NCOA4N with L63R mutation (Q13772-1, form named): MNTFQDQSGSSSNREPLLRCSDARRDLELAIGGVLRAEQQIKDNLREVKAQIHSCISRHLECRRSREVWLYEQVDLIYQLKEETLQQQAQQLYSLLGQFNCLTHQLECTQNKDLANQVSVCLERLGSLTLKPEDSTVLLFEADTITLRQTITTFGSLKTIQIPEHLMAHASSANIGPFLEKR
mGFP-NCOA4N with I56E mutation (Q13772-1, form named): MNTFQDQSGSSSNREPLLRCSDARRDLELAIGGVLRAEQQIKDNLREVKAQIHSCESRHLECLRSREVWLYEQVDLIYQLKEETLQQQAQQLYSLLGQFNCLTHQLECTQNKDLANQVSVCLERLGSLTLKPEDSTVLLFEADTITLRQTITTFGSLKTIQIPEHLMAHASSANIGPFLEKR

No constants are given. Whether binding was seen depends on the method and setting. For some of these results: In cells and extracts the contact can be indirect. Some entries that bind do so weakly or less than the wild type.

Test [1] concerns the target FLAG-NCOA4 L63R mutant, full-length (human) (UniProt Q13772). The test is described as follows: co-IP; anti-DYKDDDDK/FLAG magnetic beads on lysates of NCOA4 KO HeLa cells expressing FLAG-NCOA4 and mGFP-NCOA4N; 0.1% DDM in 25 mM HEPES-KOH pH 7.2, 150 mM NaCl, 2 mM EDTA; 3 h at 4°C; immunoblots for FLAG, GFP, FTH1, FTL.
Test [2] has as its target FLAG-NCOA4 I56E mutant, full-length (human) (UniProt Q13772). Described as above.
In test [3] the target is 3×FLAG-tagged NCOA4 (FLAG-NCOA4), full-length, wild type (human) (UniProt Q13772). The test is described as above.
In test [4] the target is N-terminal domain (residues 1–182) of NCOA4, wild type, two-hybrid fusion (human) (UniProt Q13772). Briefly: two-hybrid; yeast AH109 cells; NCOA4 N-terminal domain (1–182) fused with AD (pGADT7) or BD (pGBKT7); growth on SD (-Leu, -Trp, -Ade) plates.

As to “mGFP-NCOA4N with L63R mutation (from UniProt Q13772-1 1-182) (domain or fragment)”, in test [1], the binding result is reported as “no binding”. In the case of “mGFP-NCOA4N with I56E mutation (from UniProt Q13772-1 1-182) (domain or fragment)”, the binding result in test [2] is reported as “no binding”. As to “N-terminal domain of NCOA4 (NCOA4N) fused with mGFP, wild type (from UniProt Q13772-1 1-182) (domain or fragment)”, in test [3], the binding result is reported as “binds”. “N-terminal domain (residues 1–182) of NCOA4, wild type, two-hybrid fusion (from UniProt Q13772-1 1-182) (domain or fragment)”: the binding result in test [4] is on record as “binds”.
